The target of this test is T1, forkhead box protein P3 (mouse (endogenous in lung tissue)), Q99JB6.
T1 chain: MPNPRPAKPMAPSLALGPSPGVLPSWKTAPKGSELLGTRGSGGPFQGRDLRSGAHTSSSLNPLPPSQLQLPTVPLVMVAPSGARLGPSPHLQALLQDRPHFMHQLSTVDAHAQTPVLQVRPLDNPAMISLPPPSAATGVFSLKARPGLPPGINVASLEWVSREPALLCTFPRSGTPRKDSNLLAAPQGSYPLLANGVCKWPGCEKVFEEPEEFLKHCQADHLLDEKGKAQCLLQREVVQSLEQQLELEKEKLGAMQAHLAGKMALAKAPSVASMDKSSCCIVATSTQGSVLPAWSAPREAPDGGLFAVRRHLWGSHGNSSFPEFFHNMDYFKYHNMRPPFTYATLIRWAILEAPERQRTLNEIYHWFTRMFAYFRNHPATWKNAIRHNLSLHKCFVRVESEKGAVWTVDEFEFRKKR
The test can be described thus: co-IP; FOXP3 antibody (mouse IgG as control) on Protein A/G magnetic beads; lysate of mouse lung lobe tissue (hyperoxia for 14 d) in Non-Denaturing Lysis Buffer, incubated overnight at 4 °C; Western blotting. The note with it: remark: other sources report otherwise.

These are yes or no findings as the source states them, for the method shown. Binding seen in cells or lysates may run through a third protein. Some entries that bind do so weakly or less than the wild type.

B1: interferon regulatory factor 4, Q64287-1 1-450 (protein)
chain: MNLETGSRGSEFGMSAVSCGNGKLRQWLIDQIDSGKYPGLVWENEEKSVFRIPWKHAGKQDYNREEDAALFKAWALFKGKFREGIDKPDPPTWKTRLRCALNKSNDFEELVERSQLDISDPYKVYRIVPEGAKKGAKQLTLDDTQMAMGHPYPMTAPYGSLPAQQVHNYMMPPHDRSWRDYAPDQSHPEIPYQCPVTFGPRGHHWQGPSCENGCQVTGTFYACAPPESQAPGIPIEPSIRSAEALALSDCRLHICLYYRDILVKELTTTSPEGCRISHGHTYDVSNLDQVLFPYPDDNGQRKNIEKLLSHLERGLVLWMAPDGLYAKRLCQSRIYWDGPLALCSDRPNKLERDQTCKLFDTQQFLSELQVFAHHGRPAPRFQVTLCFGEEFPDPQRQRKLITAHVEPLLARQLYYFAQQNTGHFLRGYELPEHVTTPDYHRSLRHSSIQE
For B1, the binding result was “binds”.
